Some of the results follow. The data scatter; read single values as rough.

For the experiment, the system named is Candida albicans SN425. The experiment can be described thus: biofilm OD600 B-score; higher = more biofilm (less inhibition). The settings on record: 10 µM; assay detail: High-throughput adherence inhibition optical density biofilm assay with C. albicans SN425 in RPMI-1640/MOPS pH 7.0, 384-well plates. …. As for the experimental part:
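High-throughput adherence inhibition optical density biofilm assay with C. albicans SN425 in RPMI-1640/MOPS pH 7.0, 384-well plates. Compound (10 µM) was present only during the 90 min adherence step, then washed out, and the biofilm grew 24 h without compound. Biofilm was read as OD600 after removing the media. Scores are the difference from the mean in standard deviations and the plate B-score.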
In the case of `NCCc1ccc(S(N)(=O)=O)cc1`, the “biofilm OD600 B-score” value was 0.0295.
For `CCN1CCN(Cc2ccc(Br)s2)CC1`, the “biofilm OD600 B-score” value worked out at 0.12.
Under `C=C(C)CN(CC)C1CCN(C)CC1` stands -1.82; under `CC(=O)c1ccc(N2CCN(Cc3ccc(C)cc3)CC2)cc1`, -0.0203; under `Fc1ccc(N2CCN(Cc3cccc(F)c3)CC2)cc1`, 0.0203.
For `CCCN1CCC(NCC2CCCO2)CC1` (configuration not stated) the value was -1.4; for `CC(C)N1CCN(Cc2cccn2C)CC1`, -1.54; for `CS(C)=C1C(=O)NC(=O)N(c2ccccc2)C1=O`, -0.568.
`CSc1ccc(CN2CCN(C)CC2)cc1`: the “biofilm OD600 B-score” value is -0.0336.
For `NCCc1c[nH]c2ccc(OCc3ccccc3)cc12` the value was 1.83.
For `CN1CCN(Cc2ccsc2)CC1`, the “biofilm OD600 B-score” value was -0.654.
Take `Fc1ccc(N2CCN(Cc3cccs3)CC2)cc1`: the “biofilm OD600 B-score” value was 1.43.
As for `c1ccc(CN2CCN(Cc3ccc4c(c3)OCCO4)CC2)cc1`, the “biofilm OD600 B-score” value is 0.0175.
Under `CN(C)C(=O)Oc1ccc(OC(=O)N(C)C)cc1` stands -1.07; under `O=c1[nH]c2ccccc2c(=O)n1-c1ccccc1F`, 0.0773.
Under `Cc1c(CCN)c2ccccc2n1-c1ccccc1` stands -0.941; under `CN1CCC(NC2C3CC4CC(C3)CC2C4)CC1` (configuration not stated), 0.76.
With `O=C(Nc1cccc(OC(=O)N2CCCCC2)c1)N1CCOCC1`, the “biofilm OD600 B-score” value was -0.613.
Under `C=CC1CN2CCC1CC2[C@H](O)c1ccnc2ccccc12` (some centres not stated) stands 0.0607.
Under `Fc1ccc(N2CCN(CCc3ccccc3)CC2)cc1` stands 2.43; under `OC(c1ccccc1)(c1ccccc1)c1cnc[nH]1`, 1.53; under `CCN1CCN(Cc2ccccc2OC)CC1`, 0.0083.
For `CC(C)c1ccc(CN2CCN(CCO)CC2)cc1` the value was -0.536; for `COc1ccc(CN2CCN(C)CC2)c(C)c1C`, 1.79; for `OCCN1CCN(Cc2ccc(Cl)c(Cl)c2)CC1`, 0.895.
For the compound `Cc1cccc(CN2C[C@@H]3C[C@@H](C2)c2cccc(=O)n2C3)c1`, the “biofilm OD600 B-score” value was determined as 0.049.
For `CCOc1ccccc1N1CCN(Cc2cccnc2)CC1` the value was 0.427; for `O=C(c1ccc(Cl)cc1)N1CCOCC1`, 0.552.
On to `COc1ccc2c(CCN)c[nH]c2c1`, for which the “biofilm OD600 B-score” value came out at 1.85.
Under `CCCCOc1ccc(CN2CCN(C)CC2)cc1` stands 1.42; under `Cc1[nH]c2c(Cl)cccc2c1CCN`, 0.251; under `CN1CCCN(CC2=CC[C@H]3C[C@@H]2C3(C)C)CC1`, 2.75.
For `CN1CCN(Cc2cc(Br)cs2)CC1` the value was -0.912; for `CCCN1CCC(NC2CCC(O)CC2)CC1` (configuration not stated), -0.937.
Turning to `CCC(N)C(=O)c1ccc(Br)cc1` (configuration not stated), the “biofilm OD600 B-score” value was -0.344.
Turning to `CN1CCN(Cc2cccc(F)c2)CC1`, the “biofilm OD600 B-score” value was -0.828.
Consider `CC1(C)[C@H]2CC=C(CN3CCC(O)CC3)[C@@H]1C2`, for which the “biofilm OD600 B-score” value is -3.68.

The values are drawn from the supplement of paper PMC7824004.
